Test results reported in patent US20180339016A1 (priority 2015, published 2018).
Several values for one entry are separate records, joined by “and”; a condition that tells them apart may be missing. Identical values can stand only once. For part of these data: At least one read-out could not be matched to a standard name with certainty. Some of these results come from one statement about several compounds together.

Experiments:
[1] = system: Escherichia coli (ATCC 25922)
Method: The N-terminus of the peptides were acetylated and the C-terminus was amidated. The kinked structure can rapidly reduce the alpha-helical content, thereby greatly reducing the toxicity of the peptide against host cells. In addition, because of the potential to show specificity for the Gram-negative bacterial membrane, Pro-mutants were prepared by site-directed mutagenesis. Using the prepared peptides, their MIC for the Gram-negative bacterium E. coli and the Gram-positive bacterium S. aureus and their hemolytic activity for host cells were examined (Table 1).
To measure the synergy between the membrane-activating peptides and the repositioning drug, a 10× compound was prepared, and then serially diluted ⅔-fold with distilled water. An MH broth (900 μl) was added to and mixed with the 10× compound (100 μl), and then 200 μL of the mixture was taken and added to a 96-well plate. E. coli cultured for one day was adjusted to 0.5 MCF using MCFarland, and diluted 10-fold, and then 10 μl of the dilution was added to each well of the plate (5×10^5 CFU/mL). After addition of the bacterial cells, plate was incubated at 37° C. for 18 hours, and then the OD value at UV-Vis (600 nm) was measured. Cell viability (%)=(OD600 of sample−OD600 of negative control)/(OD600 of positive control−OD600 of negative control)×100.

E. coli ATCC 25922 = assay: Antibiotic interaction assay (Wimley), 2/3 broth microdilution: MIC alone, MIC of combination, FICI; type: cell-based
Method: Synergy was evaluated by an antibiotic interaction assay (Wimley, 2015) Using the method of Wimley (BBA, 2015, v. 1848(1), pp. 8-15), synergy between the membrane-activating peptide and an antibiotic was measured by an FICI value (FIG. 17). […] Thus, to accurately examine synergy, a ⅔ dilution method which observes MIC at denser concentration intervals is advantageous over a ½ dilution method in statistical terms. […] In the same manner, the MIC of an antibiotic or repositioning drug (second line) is measured. In the third line, the two compounds are mixed after putting half amount each, and the MIC thereof is measured.
A broth microdilution technique (⅔ dilution) was used together with an MH broth. E. coli treated with an antibiotic and the peptide was incubated in a 37° C. incubator for 18 hours.
To measure the synergy between the membrane-activating peptides and the repositioning drug, a 10× compound was prepared, and then serially diluted ⅔-fold with distilled water. An MH broth (900 μl) was added to and mixed with the 10× compound (100 μl), and then 200 μL of the mixture was taken and added to a 96-well plate. […] After addition of the bacterial cells, plate was incubated at 37° C. for 18 hours, and then the OD value at UV-Vis (600 nm) was measured. […]

Compound | MIC against E. coli lower (better) than that of KL-L9P [1] | FICI of peptide with resveratrol (E. coli ATCC 25922; FIG. 10) | FICI of drug with KL-L9P (E. coli ATCC 25922; labelled drug + KL-L9P)
LKKLLKPLKKLLKL [LK-L7P] | at least 5 fold | ≥ 1 | 
COc1ccc2cc3[n+](cc2c1OC)CCc1cc2c(cc1-3)OCO2 [berberine] |  |  | 1.5 and 1.45
